# Test results taken from PubChem BioAssay AID1117319 (Southern Research Institute, 2015).
# Protein sequences, listed by entry. Tags and fused reporters are not part of them. Lines headed by an entry give the natural chain unless they say otherwise; changes in a name come on top.
# UniProt P69720: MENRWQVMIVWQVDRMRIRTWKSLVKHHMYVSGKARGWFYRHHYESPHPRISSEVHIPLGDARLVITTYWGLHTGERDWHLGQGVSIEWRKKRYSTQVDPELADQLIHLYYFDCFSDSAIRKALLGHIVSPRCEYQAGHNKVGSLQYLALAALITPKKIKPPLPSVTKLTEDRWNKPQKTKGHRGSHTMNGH
# UniProt P69721: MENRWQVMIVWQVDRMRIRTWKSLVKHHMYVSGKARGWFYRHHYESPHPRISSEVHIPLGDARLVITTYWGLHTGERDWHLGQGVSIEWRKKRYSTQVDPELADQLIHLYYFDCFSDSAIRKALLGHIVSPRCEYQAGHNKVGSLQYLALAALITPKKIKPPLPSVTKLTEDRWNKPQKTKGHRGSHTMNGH
# UniProt P69722: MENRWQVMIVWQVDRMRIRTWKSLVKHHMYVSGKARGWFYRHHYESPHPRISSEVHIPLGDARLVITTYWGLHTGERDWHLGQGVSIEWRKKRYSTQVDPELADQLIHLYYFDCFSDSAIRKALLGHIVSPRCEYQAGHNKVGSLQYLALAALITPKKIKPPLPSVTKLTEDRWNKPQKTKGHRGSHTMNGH
# UniProt P69723: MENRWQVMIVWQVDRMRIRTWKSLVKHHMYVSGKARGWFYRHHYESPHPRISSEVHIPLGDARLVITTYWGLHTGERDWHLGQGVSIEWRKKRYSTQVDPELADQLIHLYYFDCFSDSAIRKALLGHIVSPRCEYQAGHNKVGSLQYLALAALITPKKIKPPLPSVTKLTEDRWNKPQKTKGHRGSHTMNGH
# UniProt Q9HC16: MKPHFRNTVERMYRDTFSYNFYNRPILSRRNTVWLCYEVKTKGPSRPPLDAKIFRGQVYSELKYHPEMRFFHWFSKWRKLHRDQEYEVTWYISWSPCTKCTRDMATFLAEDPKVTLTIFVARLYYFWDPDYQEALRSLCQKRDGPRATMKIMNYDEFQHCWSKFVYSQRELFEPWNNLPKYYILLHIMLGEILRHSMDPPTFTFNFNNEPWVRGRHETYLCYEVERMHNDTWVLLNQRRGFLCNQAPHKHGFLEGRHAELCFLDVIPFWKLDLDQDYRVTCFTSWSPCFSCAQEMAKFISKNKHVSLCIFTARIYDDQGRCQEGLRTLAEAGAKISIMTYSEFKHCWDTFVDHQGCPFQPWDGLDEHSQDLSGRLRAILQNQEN
# Hit rate of the full screen: of about 260,000 compounds, about 1,500 (0.58%) were called active. The shares of active, inactive and inconclusive entries below differ from those in the screen.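 The calls were made as follows: active = inhibition above a set limit at one or more doses, reproduced on every date tested; inconclusive = results disagree between test dates, or hit never tested in dose response; inactive = the rest.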
# Target: Virion infectivity factor (Human immunodeficiency virus type 1 group M subtype B (isolate BH10)) + Virion infectivity factor (Human immunodeficiency virus type 1 group M subtype B (isolate BRU/LAI)) + Virion infectivity factor (Human immunodeficiency virus type 1 group M subtype B (isolate PCV12)) + Virion infectivity factor (Human immunodeficiency virus type 1 group M subtype B (isolate HXB2)) + DNA dC->dU-editing enzyme APOBEC-3G (Homo sapiens) (UniProt P69720+P69721+P69722+P69723+Q9HC16)
# Assay: inhibitors of Vif binding to APOBEC3G peptide, primary screen, biochemical, TR-FRET, GST-Vif 1-94, biotin-A3G peptide, dose response retest (AID 1117319);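 also: Vif residues 1-94 fused to GST binding biotinylated APOBEC3G peptide 110-148; 0% = full assay without inhibitor and 100% = GST in place of GST-Vif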
# Settings: stronger effect = higher value
row,Structure (SMILES),inhibition
1,O=C(/C=C/c1cccs1)NC1CCS(=O)(=O)C1 (configuration not stated),inconclusive: 41.9%
2,COC(=O)c1cc(C(=O)OCC(=O)Nc2cc(C)on2)cc([N+](=O)[O-])c1,inconclusive: 53.6%
3,COc1ccc2oc(=O)c(-c3nnc(NCc4ccco4)s3)cc2c1,inconclusive: 43.2%
4,COc1ccc(NC(=O)CNS(=O)(=O)c2ccc3nc(C)sc3c2)c(OC)c1,inconclusive: 16.7%
5,O=C(O)COn1c(-c2ccccc2)nc2ccc([N+](=O)[O-])cc21,inconclusive: 38.3%
6,Cc1ccc(NC(=O)C2CC(=O)n3c(nc4ccccc43)N2)cc1C (configuration not stated),inconclusive: 44.5%
7,CCN(CC)S(=O)(=O)c1ccc(Cl)c(NC(=O)COC(=O)/C=C/c2cc(OC)c(OC)c(OC)c2)c1,inconclusive: 33.6%
8,Oc1c(C=C2N=c3ccccc3=N2)sc(=S)n1-c1ccc2ccccc2c1,inconclusive: 50%
9,O=C(CNC(=O)c1cccs1)NCCN1CCN(Cc2ccccc2)CC1,inconclusive: 39.5%
10,COc1cccc(CNC(=O)c2ccc3nc[nH]c3c2)c1,inconclusive: 61.7%
11,COc1cc(/C=C2\CCCc3c2nc2ccccc2c3C(=O)O)cc(OC)c1O,inconclusive: 61.1%
12,CN=C(c1ccccc1)c1c(C)cccc1C,inconclusive: 57.2%
13,C=CCNC(=O)C1CC(=O)N(c2ccc(OCC(=O)Nc3ccccc3)cc2)C1 (configuration not stated),inconclusive: 48.7%
14,COc1cc(-c2cc(=O)c3c(O)c(OC)c(OC)c(O)c3o2)ccc1O,inconclusive: 60.3%
15,CC(=O)OC[C@H]1O[C@@H](n2ncc(=O)[nH]c2=O)[C@H](OC(C)=O)[C@@H]1OC(C)=O,inconclusive: 44.7%
16,CC(=O)c1ccccc1NS(=O)(=O)c1ccccc1Cl,inactive: -6.08%
17,S=c1nc(-c2ccccc2)oc2c1CCCC2,inactive: 2.15%
18,Cc1ccc(NC(=O)c2cc3nc(C)cc(C)n3n2)cc1,inactive: 3.27%
19,O=C(c1cccc(C(F)(F)F)c1)c1c[nH]c(C(=O)NCC2CCCO2)c1 (configuration not stated),inconclusive: 62.9%

row,Structure (SMILES),inhibition
1,Cc1noc(C(F)(F)F)c1C(=O)NNC(=O)c1cccc(C(F)(F)F)c1,inconclusive: 34.4%
2,CN(C)c1ccc(/C=C2\C(=N)N3C(=NC2=O)Sc2cc(S(C)(=O)=O)ccc23)cc1,inactive: -44.5%
3,CC(C)C1CC(C(F)(F)F)n2nc(C(=O)O)cc2N1 (configuration not stated),inactive: 7.12%
4,COC(=O)c1ccc(OC(=O)CCN2c3ccccc3Sc3ccccc32)cc1,inconclusive: 46%
5,CCOC(=O)C(C)C1(O)c2ccccc2-c2ncccc21 (configuration not stated),inconclusive: 62.8%
6,COc1ccccc1CNC(=O)C(C)Sc1ccsc1[N+](=O)[O-] (configuration not stated),inconclusive: 40%
7,CCOC(=O)Cn1c(=O)c2c(nc3n2CCS3)n(C)c1=O,inconclusive: 43.2%
8,COc1ccc(N2C(=O)CCC(C(=O)NCc3cccnc3)C2c2ccc(OC)c(OC)c2)cc1 (configuration not stated),inconclusive: 48%
9,CN(CC(=O)Nc1ccccc1C(F)(F)F)C(=O)c1cccc(-n2cccc2)c1,inactive: 6.51%
10,O=C(O)CCCNC(=O)OCc1ccccc1,inactive: -2.72%
11,Cn1c(=O)c2cc(S(=O)(=O)NCCC(=O)Nc3ccc(Cl)cc3)ccc2n(C)c1=O,inconclusive: 43.1%
12,Cc1ccc(S(=O)(=O)N2CCN(C(C(=O)Nc3ccc(F)cc3)c3ccccc3)CC2)cc1 (configuration not stated),inactive: 69.8%
13,COc1cccc(N=C2SC(CC(=O)Nc3ccccc3)C(=O)N2Cc2ccccn2)c1 (configuration not stated),inconclusive: 39.1%
14,COc1ccc(N2C(=O)CSC23CCCCC3)cc1,inconclusive: 38.9%
15,CCOC(=O)c1c(C)[nH]c(C(=O)CN2CC(C)OC(C)C2)c1C (configuration not stated),inconclusive: 61.1%
16,N#CCCN(Cc1ccccc1)C(=O)c1cccs1,inconclusive: 38.2%
17,O=C(CSc1nnc(COc2ccccc2)o1)Nc1nccs1,inconclusive: 43.8%
18,CCN=c1scc(-c2ccco2)n1/N=C/c1ccc(OC)c(O)c1,inconclusive: 41.5%
19,COc1ccccc1/C=C/C=N/NC(=O)c1cc(-c2ccco2)[nH]n1,inconclusive: 58.7%

# 5 entries drawn at random from the list so far:
row,Structure (SMILES),inhibition
14,COc1ccc(N2C(=O)CSC23CCCCC3)cc1,inconclusive: 38.9%
5,CCOC(=O)C(C)C1(O)c2ccccc2-c2ncccc21 (configuration not stated),inconclusive: 62.8%
19,COc1ccccc1/C=C/C=N/NC(=O)c1cc(-c2ccco2)[nH]n1,inconclusive: 58.7%
8,COc1ccc(N2C(=O)CCC(C(=O)NCc3cccnc3)C2c2ccc(OC)c(OC)c2)cc1 (configuration not stated),inconclusive: 48%
10,O=C(O)CCCNC(=O)OCc1ccccc1,inactive: -2.72%

# (list continues)

row,Structure (SMILES),inhibition
1,O=[N+]([O-])c1ccc(-c2nnc(-c3ccccc3)c(N3CCOCC3)n2)cc1,inconclusive: 41.1%
2,COc1ccccc1N1C(=O)S/C(=C\c2ccc(C)s2)C1=O,inactive: -7.12%
3,Cc1nc(NC(=O)c2ccccc2)sc1-c1csc(Nc2ccc(F)cc2)n1,inconclusive: 55.9%
4,NNC(=O)c1nc(-c2cccc(-n3cccc3)c2)no1,inactive: 2.13%
5,CCOC(=O)c1nc(C)n(-c2ccc(Cl)cc2Cl)n1,inactive: 23.2%
6,COC(=O)c1ccccc1NC(=S)NC(=O)C1CCCCC1,inactive: -4.52%
7,COc1ccc(Cl)cc1C(=O)O/N=C(\N)c1ccccn1,inconclusive: 49.4%
8,COCCNC(=O)c1ccc(CS(=O)(=O)c2ccccc2)o1,inconclusive: 50.8%
9,O=C(O/N=C1\CCCCC1c1ccc([N+](=O)[O-])cc1[N+](=O)[O-])c1c(F)cccc1F (configuration not stated),inconclusive: 59.9%
10,CN1CCN(Cc2cc(COCc3ccccc3)c3cccnc3c2O)CC1,inconclusive: 41.5%
11,O=C(NNS(=O)(=O)c1ccc(Cl)cc1)c1cc(-c2ccccc2)nc2ccccc12,inconclusive: 34.5%
12,N#Cc1cc2c(nc1S(=O)(=O)Cc1ccccc1)CCCC2,inconclusive: 36.6%
13,COC(C(=O)Nc1c(F)cccc1F)c1ccccc1 (configuration not stated),inconclusive: 39.8%
14,Cc1cc(NC(=O)CSc2nnc(-c3ccccc3)n2Cc2ccco2)no1,inconclusive: 61.7%
15,C/C(=N\O)C(=O)NCCN(C)C,inconclusive: 34.7%
16,COc1ccc(N2CCN(S(=O)(=O)c3ccc(C(=O)NC4CCCC4)cc3)CC2)cc1,inconclusive: 44.5%
17,CCOc1ccc(/C=C/C2=Cc3c(sc(NC(=O)CSc4n[nH]c(N)n4)c3C#N)C(C)(C)C2)cc1,inconclusive: 40.6%
18,CN(C)CC(=O)Nc1ccc2cn[nH]c2c1,inconclusive: 43%
19,CN(Cc1cnc2nc(N)nc(N)c2n1)c1ccc(C(=O)NC(CCC(=O)O)C(=O)O)c2ccccc12 (configuration not stated),inactive: 4.59%
